Legend:
U937 cells = assay: Cell growth inhibitory effect, U937 cells (WST-8, 72 hours); details: Homo sapiens, U-937, 72 h, read-out: U937 cells (IC50 value: μM)
K562 cells = assay: Cell growth inhibitory effect, K562 cells (WST-8, 72 hours); details: Homo sapiens, K562, 72 h, read-out: K562 cells (IC50 value: μM)

Cc1ccc(NC(=O)c2ccc(CN3CCN(C)CC3)cc2)cc1Nc1nccc(-c2cccnc2)n1 [control chemical, reference compound]
IC50 (U937 cells): 17.8 µM
IC50 (K562 cells): 0.13 µM
